Source: publication PMC6525205, “Structure of the human frataxin-bound iron-sulfur cluster assembly complex provides insight into its activation mechanism” (Nature Communications, 2019)
No constants are given. Whether binding was seen depends on the method and setting. Some results given as binding are weak or reduced against the parent protein; the word gives no strength.

Amino acid sequences for entries named in this document (tags omitted). A change or cut given only in a name is not applied to a line headed by its entry. Residues count along the entry.
UniProt Q9HD34: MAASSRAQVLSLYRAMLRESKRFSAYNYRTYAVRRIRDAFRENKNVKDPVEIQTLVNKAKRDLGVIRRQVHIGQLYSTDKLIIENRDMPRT
UniProt Q9Y697, residues 56-457: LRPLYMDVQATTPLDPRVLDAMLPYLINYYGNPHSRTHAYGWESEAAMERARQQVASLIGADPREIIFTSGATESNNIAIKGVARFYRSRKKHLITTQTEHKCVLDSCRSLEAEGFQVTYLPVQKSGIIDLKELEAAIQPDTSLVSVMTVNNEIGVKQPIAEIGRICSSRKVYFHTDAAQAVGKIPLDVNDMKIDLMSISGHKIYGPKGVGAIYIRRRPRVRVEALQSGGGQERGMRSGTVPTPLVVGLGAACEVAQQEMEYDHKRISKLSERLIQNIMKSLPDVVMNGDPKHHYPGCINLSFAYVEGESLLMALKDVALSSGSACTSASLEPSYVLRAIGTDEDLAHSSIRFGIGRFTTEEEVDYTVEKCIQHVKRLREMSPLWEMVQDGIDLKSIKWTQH

Biological target: His-tagged ISD11 (human) (UniProt Q9HD34)
Test: co-purification (Ni affinity, then size exclusion); proteins co-expressed in E. coli; His-ISD11 captured on Ni Sepharose; 50 mM HEPES pH 7.5, 500 mM NaCl, imidazole, 5% glycerol, 2 mM TCEP; then Superdex S200

- binding: binds
Substance: NFS1 (Δ1-55), non-tagged (from UniProt Q9Y697 56-457) (enzyme)
